Results are given in words; binding and its absence hold for the method and conditions named. Binding seen in cells or lysates may run through a third protein. A yes stands for co-enrichment or nearness to the bait. Other partners may have been found.
The substances below were run against ZauP with an N-terminal 3xFLAG tag (Caulobacter crescentus) (assay: affinity purification with mass spectrometry; CoIP-MS: FLAG-tagged bait recovered from cleared C. crescentus lysate on anti-FLAG M2 magnetic beads (10 mM HEPES KOH pH 7.5, 75 mM NaCl, 0.1% IGEPAL, 1 h, 4°C), washed three times in 0.1 M ammonium bicarbonate, LC-MS/MS; untagged NA1000 as negative control; three biological replicates).

Sequences of proteins named here, by UniProt entry; tags and fusion partners are left off. A change or cut given only in a name is not applied to a line headed by its entry.
UniProt A0A0H3C832: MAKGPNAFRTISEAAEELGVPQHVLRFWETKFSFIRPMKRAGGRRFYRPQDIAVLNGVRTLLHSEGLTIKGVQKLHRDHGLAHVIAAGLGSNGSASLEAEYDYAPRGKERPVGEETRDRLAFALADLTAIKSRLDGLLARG
UniProt A0A0H3CDG4: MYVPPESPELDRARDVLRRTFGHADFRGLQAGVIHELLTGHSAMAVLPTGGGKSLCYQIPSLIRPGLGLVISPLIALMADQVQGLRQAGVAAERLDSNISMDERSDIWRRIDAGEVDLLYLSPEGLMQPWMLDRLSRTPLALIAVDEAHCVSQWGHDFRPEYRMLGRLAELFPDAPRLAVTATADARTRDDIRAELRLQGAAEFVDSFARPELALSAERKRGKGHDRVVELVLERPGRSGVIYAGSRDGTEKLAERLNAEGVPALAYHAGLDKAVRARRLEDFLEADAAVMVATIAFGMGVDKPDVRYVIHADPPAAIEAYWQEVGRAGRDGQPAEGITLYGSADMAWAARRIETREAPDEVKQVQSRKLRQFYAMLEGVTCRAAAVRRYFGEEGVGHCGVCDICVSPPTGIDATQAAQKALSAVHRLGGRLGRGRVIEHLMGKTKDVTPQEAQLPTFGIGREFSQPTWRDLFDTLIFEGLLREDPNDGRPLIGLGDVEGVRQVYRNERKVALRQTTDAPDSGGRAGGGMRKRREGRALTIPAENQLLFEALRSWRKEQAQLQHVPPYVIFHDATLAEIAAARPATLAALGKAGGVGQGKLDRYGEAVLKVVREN
UniProt A0A0H3C997: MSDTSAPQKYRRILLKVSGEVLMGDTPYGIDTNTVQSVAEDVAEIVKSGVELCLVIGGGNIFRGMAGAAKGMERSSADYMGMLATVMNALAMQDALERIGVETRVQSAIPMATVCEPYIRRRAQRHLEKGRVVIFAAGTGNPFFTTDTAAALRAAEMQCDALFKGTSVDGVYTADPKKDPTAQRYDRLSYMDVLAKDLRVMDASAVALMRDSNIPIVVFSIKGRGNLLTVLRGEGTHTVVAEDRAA
UniProt A0A0H3CD23: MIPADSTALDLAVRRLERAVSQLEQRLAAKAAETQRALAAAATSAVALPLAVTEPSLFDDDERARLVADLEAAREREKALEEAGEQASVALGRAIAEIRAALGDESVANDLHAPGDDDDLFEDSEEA
UniProt A0A0H3CCN8: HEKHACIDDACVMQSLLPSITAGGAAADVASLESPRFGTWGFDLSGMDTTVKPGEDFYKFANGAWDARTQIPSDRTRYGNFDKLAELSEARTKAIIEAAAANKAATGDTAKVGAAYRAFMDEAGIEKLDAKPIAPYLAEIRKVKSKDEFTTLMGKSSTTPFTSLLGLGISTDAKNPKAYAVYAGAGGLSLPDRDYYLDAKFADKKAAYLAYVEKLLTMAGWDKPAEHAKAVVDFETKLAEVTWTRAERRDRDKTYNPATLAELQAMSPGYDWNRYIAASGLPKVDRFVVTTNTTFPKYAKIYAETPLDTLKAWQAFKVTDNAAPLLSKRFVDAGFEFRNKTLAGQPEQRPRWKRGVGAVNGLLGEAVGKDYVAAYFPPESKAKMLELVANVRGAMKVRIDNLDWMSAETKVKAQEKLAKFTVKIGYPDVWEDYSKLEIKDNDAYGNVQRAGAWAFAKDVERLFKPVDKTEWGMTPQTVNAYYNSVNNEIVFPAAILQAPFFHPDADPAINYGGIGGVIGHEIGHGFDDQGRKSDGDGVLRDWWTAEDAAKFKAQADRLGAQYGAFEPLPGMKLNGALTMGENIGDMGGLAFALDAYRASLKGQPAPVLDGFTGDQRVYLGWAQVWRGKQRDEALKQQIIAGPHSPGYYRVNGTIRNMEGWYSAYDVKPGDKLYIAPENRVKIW

Substance | binding
ZapT (from UniProt A0A0H3C832) | binds

The substances below were run against ZapA with a C-terminal 3xFLAG tag (Caulobacter crescentus) in the same assay as above.

Substance | binding
RecQ DNA helicase (CCNA_03578) (from UniProt A0A0H3CDG4) (enzyme) | binds
ZapT (from UniProt A0A0H3C832) | binds
uridylate kinase (CCNA_01998) (from UniProt A0A0H3C997) (enzyme) | binds
ZauP (from UniProt A0A0H3CD23) | binds
putative zinc metalloprotease (CCNA_03619) (from UniProt A0A0H3CCN8) (enzyme) | binds
